Earlier results, collected in patent US10781469B2, “Multi-mediator reagent formulations for use in electrochemical detection” (Omni Biomedical, Inc., priority 2015, dated 2020).
Some entries share one result that the patent states for a list of compounds. At least one structure is not confirmed: it was looked up by name or label, or the drawing left a doubt.

Details: prior-art mediators; cited from earlier work

SMILES: COS(=O)(=O)[O-].C[n+]1c2ccccc2nc2ccccc21 [phenazine methosulfate]
- solubility: 1000 to 2000 µM
